These are yes or no findings as the source states them, for the method shown. In cells and extracts the contact can be indirect. Binding can be weak; no strength is given.
What was measured:
Test in all cases: cross-linking; in vivo cross-linking of intact A. baumannii AB5075 cells with the PIR cross-linker BDP-NHP (500 mM Na2HPO4 pH 7.4, 150 mM NaCl, room temperature), trypsin digest, avidin enrichment, LC-MS (ReACT); cross-linked peptide pairs identified
[1] = biological target: haemolysin-like protein ABUW_2554 (Acinetobacter baumannii AB5075 (endogenous in AB5075 cells))
[2] = biological target: haemolysin-like protein ABUW_2845 (Acinetobacter baumannii AB5075 (endogenous in AB5075 cells)) (UniProt V5VFJ0)
[3] = biological target: lipoprotein ABUW_3571 (Acinetobacter baumannii AB5075 (endogenous in AB5075 cells))

Amino acid sequences for entries named in this document (tags omitted). A change or cut given only in a name is not applied to a line headed by its entry. Residues count along the entry.
UniProt V5VFJ0: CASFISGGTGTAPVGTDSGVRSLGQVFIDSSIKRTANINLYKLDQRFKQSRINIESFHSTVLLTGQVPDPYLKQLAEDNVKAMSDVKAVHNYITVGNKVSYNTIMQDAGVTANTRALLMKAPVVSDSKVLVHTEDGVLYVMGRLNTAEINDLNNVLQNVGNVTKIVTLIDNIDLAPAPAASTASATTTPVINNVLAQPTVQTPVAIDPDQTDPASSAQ
UniProt Q9L4P2, residues 18-273: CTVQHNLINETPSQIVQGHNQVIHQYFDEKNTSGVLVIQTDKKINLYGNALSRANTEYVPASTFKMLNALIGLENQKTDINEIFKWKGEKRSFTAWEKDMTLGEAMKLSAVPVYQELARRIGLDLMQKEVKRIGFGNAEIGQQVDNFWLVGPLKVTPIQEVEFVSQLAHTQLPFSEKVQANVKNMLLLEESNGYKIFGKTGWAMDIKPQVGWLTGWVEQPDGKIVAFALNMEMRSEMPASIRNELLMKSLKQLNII

Measured: binding

β-lactamase Oxa-23 (from UniProt Q9L4P2 18-273) (enzyme)
binds: all assays above
